Source: PMC7244511, “Phosphoproteomics identifies dual-site phosphorylation in an extended basophilic motif regulating FILIP1-mediated degradation of filamin-C” (Communications Biology, 2020)
Results are given in words; binding and its absence hold for the method and conditions named. Binding seen in cells or lysates may run through a third protein. Binding can be weak; no strength is given.

Amino acid sequences for entries named in this document (tags omitted). A change or cut given only in a name is not applied to a line headed by its entry.
UniProt Q14315: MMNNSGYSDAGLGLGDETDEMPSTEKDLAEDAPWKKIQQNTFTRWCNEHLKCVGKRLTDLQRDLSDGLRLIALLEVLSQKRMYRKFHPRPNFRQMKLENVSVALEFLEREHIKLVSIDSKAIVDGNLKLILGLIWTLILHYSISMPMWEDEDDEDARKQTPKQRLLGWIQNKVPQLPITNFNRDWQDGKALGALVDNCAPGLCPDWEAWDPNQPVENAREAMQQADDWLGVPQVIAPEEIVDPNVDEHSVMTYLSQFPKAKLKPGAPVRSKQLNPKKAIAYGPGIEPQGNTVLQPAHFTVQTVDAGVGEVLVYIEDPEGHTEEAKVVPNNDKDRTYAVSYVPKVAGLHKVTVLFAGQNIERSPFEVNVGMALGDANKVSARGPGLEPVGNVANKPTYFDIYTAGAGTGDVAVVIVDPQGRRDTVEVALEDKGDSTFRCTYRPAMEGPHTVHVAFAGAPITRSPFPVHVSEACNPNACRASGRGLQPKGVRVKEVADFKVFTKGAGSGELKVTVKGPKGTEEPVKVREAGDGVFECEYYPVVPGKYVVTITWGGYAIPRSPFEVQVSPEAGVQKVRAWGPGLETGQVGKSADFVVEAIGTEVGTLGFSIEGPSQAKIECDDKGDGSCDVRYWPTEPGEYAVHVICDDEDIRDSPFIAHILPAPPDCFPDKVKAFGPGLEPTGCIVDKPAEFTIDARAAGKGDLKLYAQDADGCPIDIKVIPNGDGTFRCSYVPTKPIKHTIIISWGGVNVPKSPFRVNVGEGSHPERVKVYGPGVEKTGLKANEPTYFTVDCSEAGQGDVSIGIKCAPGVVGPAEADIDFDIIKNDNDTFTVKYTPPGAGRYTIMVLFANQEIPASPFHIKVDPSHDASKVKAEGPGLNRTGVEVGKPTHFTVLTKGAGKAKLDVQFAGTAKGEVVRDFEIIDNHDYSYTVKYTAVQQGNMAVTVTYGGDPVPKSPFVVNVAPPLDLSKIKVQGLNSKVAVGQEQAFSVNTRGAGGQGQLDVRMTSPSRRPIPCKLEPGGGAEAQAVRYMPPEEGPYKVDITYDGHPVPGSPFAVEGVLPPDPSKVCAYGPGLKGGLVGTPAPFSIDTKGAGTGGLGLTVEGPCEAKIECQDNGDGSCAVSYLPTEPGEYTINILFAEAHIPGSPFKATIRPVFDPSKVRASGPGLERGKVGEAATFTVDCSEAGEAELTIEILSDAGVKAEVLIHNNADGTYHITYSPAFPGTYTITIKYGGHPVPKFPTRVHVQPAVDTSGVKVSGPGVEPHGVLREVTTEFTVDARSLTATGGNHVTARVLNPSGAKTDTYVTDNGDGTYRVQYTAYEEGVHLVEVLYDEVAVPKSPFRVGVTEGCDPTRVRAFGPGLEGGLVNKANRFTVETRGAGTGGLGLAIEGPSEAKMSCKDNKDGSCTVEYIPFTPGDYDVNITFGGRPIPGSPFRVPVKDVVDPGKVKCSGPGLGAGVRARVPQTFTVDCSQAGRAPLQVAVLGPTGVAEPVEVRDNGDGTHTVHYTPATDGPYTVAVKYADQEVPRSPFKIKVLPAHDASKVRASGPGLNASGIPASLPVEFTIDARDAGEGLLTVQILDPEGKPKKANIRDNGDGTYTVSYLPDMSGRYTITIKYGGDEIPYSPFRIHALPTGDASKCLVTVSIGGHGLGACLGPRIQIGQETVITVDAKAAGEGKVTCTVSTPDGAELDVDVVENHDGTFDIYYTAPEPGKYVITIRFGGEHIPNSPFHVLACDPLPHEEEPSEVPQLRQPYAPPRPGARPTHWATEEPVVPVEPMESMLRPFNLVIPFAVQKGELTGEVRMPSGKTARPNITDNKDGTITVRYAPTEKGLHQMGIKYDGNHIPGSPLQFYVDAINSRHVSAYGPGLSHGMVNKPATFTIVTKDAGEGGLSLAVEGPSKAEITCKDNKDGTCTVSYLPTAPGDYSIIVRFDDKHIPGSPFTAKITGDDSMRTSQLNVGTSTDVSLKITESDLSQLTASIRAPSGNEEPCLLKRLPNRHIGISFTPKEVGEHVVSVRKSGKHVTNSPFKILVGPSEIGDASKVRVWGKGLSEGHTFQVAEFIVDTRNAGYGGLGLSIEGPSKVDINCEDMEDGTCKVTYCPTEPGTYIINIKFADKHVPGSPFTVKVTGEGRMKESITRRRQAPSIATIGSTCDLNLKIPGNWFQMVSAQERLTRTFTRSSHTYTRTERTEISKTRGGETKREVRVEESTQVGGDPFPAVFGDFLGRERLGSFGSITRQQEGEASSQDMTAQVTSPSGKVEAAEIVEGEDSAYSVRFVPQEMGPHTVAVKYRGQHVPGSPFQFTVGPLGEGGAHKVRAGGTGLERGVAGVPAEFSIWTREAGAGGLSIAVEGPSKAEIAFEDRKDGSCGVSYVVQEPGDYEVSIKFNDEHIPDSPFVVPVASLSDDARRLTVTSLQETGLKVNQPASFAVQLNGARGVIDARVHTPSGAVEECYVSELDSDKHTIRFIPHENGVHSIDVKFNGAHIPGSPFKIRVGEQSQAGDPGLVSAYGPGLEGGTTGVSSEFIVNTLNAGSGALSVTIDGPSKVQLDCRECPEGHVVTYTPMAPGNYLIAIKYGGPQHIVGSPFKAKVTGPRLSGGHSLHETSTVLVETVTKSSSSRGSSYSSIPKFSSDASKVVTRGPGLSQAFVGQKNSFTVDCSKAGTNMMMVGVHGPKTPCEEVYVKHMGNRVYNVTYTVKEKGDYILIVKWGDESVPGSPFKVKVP
UniProt Q9JLV1: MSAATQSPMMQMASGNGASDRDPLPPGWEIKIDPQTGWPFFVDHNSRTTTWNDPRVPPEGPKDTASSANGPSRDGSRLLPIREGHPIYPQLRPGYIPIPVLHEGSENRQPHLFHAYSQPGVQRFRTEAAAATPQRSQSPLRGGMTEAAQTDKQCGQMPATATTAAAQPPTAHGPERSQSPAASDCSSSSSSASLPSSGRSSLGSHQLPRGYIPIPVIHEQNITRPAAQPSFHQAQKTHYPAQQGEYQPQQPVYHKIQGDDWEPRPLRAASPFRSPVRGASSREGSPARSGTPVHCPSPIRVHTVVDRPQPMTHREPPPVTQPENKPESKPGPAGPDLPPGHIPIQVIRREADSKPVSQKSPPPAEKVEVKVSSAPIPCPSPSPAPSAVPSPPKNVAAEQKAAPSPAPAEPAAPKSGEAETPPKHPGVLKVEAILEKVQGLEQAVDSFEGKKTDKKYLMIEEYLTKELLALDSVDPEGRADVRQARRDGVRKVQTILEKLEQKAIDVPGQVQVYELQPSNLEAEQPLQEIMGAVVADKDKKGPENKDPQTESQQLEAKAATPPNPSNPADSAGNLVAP

Molecular target: Myc-tagged FLNc d18–21 WT (expressed in C2 cells) (human) (UniProt Q14315)
Assay: co-IP; C2 cells transfected with Myc-FLNc d18–21 WT, AA or DD with or without HA-FILIP1, 6 h 10 µM MG-132 or DMSO; Myc-Dynabeads from modified RIPA lysate; immunoblot

binding: binds
Substance: Bcl-2-associated athanogene 3 (Bag3) (from UniProt Q9JLV1 1-577)
